Reference: PubChem BioAssay AID1508597 (Cure First, 2020)

Aim: 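Knock-downs altering ovarian cancer cell survival with or without PARP inhibitor rucaparib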 (primary screen)
Cell system: human ovarian carcinoma lines grown from tumours: OCI-P5x (papillary serous) and OCI-C5x (clear cell)
Reagents: siRNA pool against human genes, 1.25 pmol siRNA per well
Duration: 72 h or 96 h, depending on the cell culture
Treatment: rucaparib 20 µM (about IC30) or vehicle, present until read-out
Read-out: 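Luminescent ATP-based viability assay read 72 or 96 h after transfection, depending on culture, given as normalised percent viability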
Direction: viability, normalised: higher = more viable cells remaining
Active means: 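Active when normalised viability falls below 80 percent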
Meaning of the calls: active = viability under 80%; inactive = viability 80% or more
Shown is one part, drawn at random, of about 2,100 reagents tested. 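Calls flag viability under 80% in either arm, not effects specific to rucaparib; the reference for percent is not stated.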 No sequences are given here. The record does not give: the 100% reference.

target gene	PubChem SID	rucaparib or vehicle	cell line	technical replicate	viability, normalised (%)	call
KAT2A	SID405526924	Rucaparib	OCI-C5x (clear cell)	1	62.6	active
KAT2A	SID405526924	Rucaparib	OCI-C5x (clear cell)	2	50.4	active
KAT2A	SID405526924	Rucaparib	OCI-C5x (clear cell)	3	50.5	active
KAT2A	SID405526924	Rucaparib	OCI-P5x (serous)	1	49.4	active
KAT2A	SID405526924	Rucaparib	OCI-P5x (serous)	2	61.9	active
KAT2A	SID405526924	Rucaparib	OCI-P5x (serous)	3	58.8	active
KAT2A	SID405526924	Vehicle	OCI-C5x (clear cell)	1	58.4	active
KAT2A	SID405526924	Vehicle	OCI-C5x (clear cell)	2	54.3	active
KAT2A	SID405526924	Vehicle	OCI-C5x (clear cell)	3	72.2	active
KAT2A	SID405526924	Vehicle	OCI-P5x (serous)	1	75	active
KAT2A	SID405526924	Vehicle	OCI-P5x (serous)	2	79.3	active
KAT2A	SID405526924	Vehicle	OCI-P5x (serous)	3	58.6	active
RNF20	SID405527254	Rucaparib	OCI-C5x (clear cell)	1	57	active
RNF20	SID405527254	Rucaparib	OCI-C5x (clear cell)	2	40	active
RNF20	SID405527254	Rucaparib	OCI-C5x (clear cell)	3	55.2	active
RNF20	SID405527254	Rucaparib	OCI-P5x (serous)	1	71	active
RNF20	SID405527254	Rucaparib	OCI-P5x (serous)	2	69.6	active
RNF20	SID405527254	Rucaparib	OCI-P5x (serous)	3	69.7	active
RNF20	SID405527254	Vehicle	OCI-C5x (clear cell)	1	59.1	active
RNF20	SID405527254	Vehicle	OCI-C5x (clear cell)	2	48.8	active
RNF20	SID405527254	Vehicle	OCI-C5x (clear cell)	3	58.8	active
RNF20	SID405527254	Vehicle	OCI-P5x (serous)	1	74.6	active
RNF20	SID405527254	Vehicle	OCI-P5x (serous)	2	80	active
RNF20	SID405527254	Vehicle	OCI-P5x (serous)	3	99.4	inactive
SET	SID405526956	Rucaparib	OCI-C5x (clear cell)	1	46.9	active
SET	SID405526956	Rucaparib	OCI-C5x (clear cell)	2	46.4	active
SET	SID405526956	Rucaparib	OCI-C5x (clear cell)	3	53.3	active
SET	SID405526956	Rucaparib	OCI-P5x (serous)	1	65.4	active
SET	SID405526956	Rucaparib	OCI-P5x (serous)	2	70.2	active
SET	SID405526956	Rucaparib	OCI-P5x (serous)	3	74.5	active
SET	SID405526956	Vehicle	OCI-C5x (clear cell)	1	58.8	active
SET	SID405526956	Vehicle	OCI-C5x (clear cell)	2	58.6	active
SET	SID405526956	Vehicle	OCI-C5x (clear cell)	3	72	active
SET	SID405526956	Vehicle	OCI-P5x (serous)	1	80.8	inactive
SET	SID405526956	Vehicle	OCI-P5x (serous)	2	88.6	inactive
SET	SID405526956	Vehicle	OCI-P5x (serous)	3	73.1	active

Sorted by “viability, normalised (%)” (ascending): some entries from above.
target gene	PubChem SID	rucaparib or vehicle	cell line	technical replicate	viability, normalised (%)	call
RNF20	SID405527254	Rucaparib	OCI-C5x (clear cell)	2	40	active
KAT2A	SID405526924	Vehicle	OCI-C5x (clear cell)	2	54.3	active
RNF20	SID405527254	Rucaparib	OCI-C5x (clear cell)	3	55.2	active
RNF20	SID405527254	Rucaparib	OCI-C5x (clear cell)	1	57	active
KAT2A	SID405526924	Vehicle	OCI-C5x (clear cell)	1	58.4	active
KAT2A	SID405526924	Vehicle	OCI-P5x (serous)	3	58.6	active
RNF20	SID405527254	Vehicle	OCI-C5x (clear cell)	1	59.1	active
RNF20	SID405527254	Rucaparib	OCI-P5x (serous)	2	69.6	active
RNF20	SID405527254	Rucaparib	OCI-P5x (serous)	3	69.7	active
RNF20	SID405527254	Rucaparib	OCI-P5x (serous)	1	71	active
KAT2A	SID405526924	Vehicle	OCI-C5x (clear cell)	3	72.2	active
KAT2A	SID405526924	Vehicle	OCI-P5x (serous)	1	75	active
KAT2A	SID405526924	Vehicle	OCI-P5x (serous)	2	79.3	active

Next reagents follow:
target gene	PubChem SID	rucaparib or vehicle	cell line	technical replicate	viability, normalised (%)	call
ID4	SID405526361	Rucaparib	OCI-C5x (clear cell)	1	44.7	active
ID4	SID405526361	Rucaparib	OCI-C5x (clear cell)	2	41.3	active
ID4	SID405526361	Rucaparib	OCI-C5x (clear cell)	3	53.7	active
ID4	SID405526361	Rucaparib	OCI-P5x (serous)	1	77	active
ID4	SID405526361	Rucaparib	OCI-P5x (serous)	2	55.3	active
ID4	SID405526361	Rucaparib	OCI-P5x (serous)	3	83.5	inactive
ID4	SID405526361	Vehicle	OCI-C5x (clear cell)	1	41	active
ID4	SID405526361	Vehicle	OCI-C5x (clear cell)	2	46.7	active
ID4	SID405526361	Vehicle	OCI-C5x (clear cell)	3	29.4	active
ID4	SID405526361	Vehicle	OCI-P5x (serous)	1	66.6	active
ID4	SID405526361	Vehicle	OCI-P5x (serous)	2	66.3	active
ID4	SID405526361	Vehicle	OCI-P5x (serous)	3	55.8	active
HUNK	SID405527817	Rucaparib	OCI-C5x (clear cell)	1	67.4	active
HUNK	SID405527817	Rucaparib	OCI-C5x (clear cell)	2	48.2	active
HUNK	SID405527817	Rucaparib	OCI-C5x (clear cell)	3	31.4	active
HUNK	SID405527817	Rucaparib	OCI-P5x (serous)	1	111	inactive
HUNK	SID405527817	Rucaparib	OCI-P5x (serous)	2	69.6	active
HUNK	SID405527817	Rucaparib	OCI-P5x (serous)	3	53.2	active
HUNK	SID405527817	Vehicle	OCI-C5x (clear cell)	1	59.2	active
HUNK	SID405527817	Vehicle	OCI-C5x (clear cell)	2	48.5	active
HUNK	SID405527817	Vehicle	OCI-C5x (clear cell)	3	45.2	active
HUNK	SID405527817	Vehicle	OCI-P5x (serous)	1	81.8	inactive
HUNK	SID405527817	Vehicle	OCI-P5x (serous)	2	88.7	inactive
HUNK	SID405527817	Vehicle	OCI-P5x (serous)	3	40.6	active
BAZ1B	SID405528017	Rucaparib	OCI-C5x (clear cell)	1	56.1	active
BAZ1B	SID405528017	Rucaparib	OCI-C5x (clear cell)	2	43	active
BAZ1B	SID405528017	Rucaparib	OCI-C5x (clear cell)	3	51.1	active
BAZ1B	SID405528017	Rucaparib	OCI-P5x (serous)	1	64.7	active
BAZ1B	SID405528017	Rucaparib	OCI-P5x (serous)	2	64.5	active
BAZ1B	SID405528017	Rucaparib	OCI-P5x (serous)	3	66.6	active
BAZ1B	SID405528017	Vehicle	OCI-C5x (clear cell)	1	37.3	active
BAZ1B	SID405528017	Vehicle	OCI-C5x (clear cell)	2	48.8	active
BAZ1B	SID405528017	Vehicle	OCI-C5x (clear cell)	3	40.3	active
BAZ1B	SID405528017	Vehicle	OCI-P5x (serous)	1	59.4	active
BAZ1B	SID405528017	Vehicle	OCI-P5x (serous)	2	73.9	active
BAZ1B	SID405528017	Vehicle	OCI-P5x (serous)	3	72.2	active
MAPKAPK5	SID405527628	Rucaparib	OCI-C5x (clear cell)	1	61.8	active
MAPKAPK5	SID405527628	Rucaparib	OCI-C5x (clear cell)	2	59.2	active
MAPKAPK5	SID405527628	Rucaparib	OCI-C5x (clear cell)	3	63	active
MAPKAPK5	SID405527628	Rucaparib	OCI-P5x (serous)	1	102	inactive
MAPKAPK5	SID405527628	Rucaparib	OCI-P5x (serous)	2	110	inactive
MAPKAPK5	SID405527628	Rucaparib	OCI-P5x (serous)	3	89.4	inactive
MAPKAPK5	SID405527628	Vehicle	OCI-C5x (clear cell)	1	52.5	active
MAPKAPK5	SID405527628	Vehicle	OCI-C5x (clear cell)	2	76.2	active
MAPKAPK5	SID405527628	Vehicle	OCI-C5x (clear cell)	3	66.5	active
MAPKAPK5	SID405527628	Vehicle	OCI-P5x (serous)	1	70.3	active
MAPKAPK5	SID405527628	Vehicle	OCI-P5x (serous)	2	90.6	inactive
MAPKAPK5	SID405527628	Vehicle	OCI-P5x (serous)	3	88.7	inactive
